Measured values reported in PubChem BioAssay AID624297 (National Center for Advancing Translational Sciences (NCATS), 2012).
Among all 340,000 compounds or so, about 6,200 (1.8%) were called active. Where a call stands in place of a potency, no number is given. The inconclusive results got no clear call from the source; some entries with a clear call stand among them for comparison. Calls follow the shape of the dose curve; as a rule, active = well fitted activation curve with a large enough effect; inconclusive = small, poorly fitted or top-dose-only effect; inactive = no such curve, though single readings can be large or run the other way. Where the call is inconclusive, the potency comes from a doubtful curve fit.

assay: A quantitative high throughput screen for small molecules that induce DNA re-replication in SW480 colon adenocarcinoma cells.; also: nearly all actives have a fitted effect of over 55% in size; details: Hoechst DNA content imaging, 48 h; series mostly up to 46.1 µM
In short: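 DNA re-replication was detected as more nuclei of elevated Hoechst intensity after 48 hr exposure to compound (23 nL pinned per well of 250 cells).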
Potency is read from the fitted curve at half-maximal effect.

Row | Structure (SMILES) | Potency
1 | O=C(Nc1ccc(Cl)c(S(=O)(=O)N2CCOCC2)c1)C1=NN(c2ccccc2)C(=O)CC1 | inactive
2 | CN(C(=O)c1cccc(NC(=O)Cc2cccc(NC(=O)C3CCCN(C(=O)C4CCCC4)C3)c2)c1)C1CCC1 (stereo not drawn) | inconclusive: 0.291 µM [activator, partial curve, poor fit]
3 | COc1ccc(OC)c(S(=O)(=O)Nc2ccc(-c3ccc4nncn4n3)cc2)c1 | inactive
4 | O=C(N/N=C/c1ccc([N+](=O)[O-])o1)c1cn(-c2ccccc2)nc1-c1ccccc1 | inactive
5 | Cc1ccc(C2CN(C)C3(C(=O)Nc4ccccc43)C23COc2ccccc2C3=O)cc1 (stereo not drawn) | inconclusive: 13 µM [activator, single point]
6 | Cc1cc(C)cc(Nc2nc(-c3ccc(S(=O)(=O)N4CCCC4)cc3)cs2)c1 | inactive
7 | CN1CCN(c2ccccc2NC(=O)c2ccc(-c3ccccc3[N+](=O)[O-])o2)CC1 | inconclusive: 18.4 µM [activator, partial curve, poor fit]
8 | COc1ccccc1Nc1nnc(SCC(=O)c2cc(C)n(CC3CCCO3)c2C)s1 (stereo not drawn) | inconclusive: 32.6 µM [activator, partial curve, poor fit]
9 | O=c1[nH]c2ccccc2nc1/C=C(\O)c1cccs1 | inactive
10 | Cc1cc2ncn(-c3ncnc4sc5c(c34)CCC(C)C5)c2cc1C (stereo not drawn) | inactive
11 | CCOC(=O)c1ncccc1NC(=O)CC(=O)Nc1cccnc1C(=O)OCC | inconclusive: 29.1 µM [activator, single point]
12 | COc1ccc(-c2oc3ccccc3c2C(=O)OCc2ccc(O)cc2)cc1 | inconclusive: 20.6 µM [activator, single point]
13 | COc1cc(/C=N/NS(=O)(=O)c2ccc(C(C)(C)C)cc2)cc([N+](=O)[O-])c1O | inconclusive: 23.1 µM [activator, single point]
14 | CC(C)(C)NC(=S)NNC(=O)[C@H]1C[C@@H]1c1ccccc1 | inactive
15 | CC(NC(=S)NC(=O)c1cccs1)c1ccccc1 (stereo not drawn) | inactive
16 | COC(=O)C1CCN(S(=O)(=O)c2ccc(NC(C)=O)cc2)CC1 | inactive
17 | CC1(C)OC2CC3C4CC(F)C5=CC(=O)C=CC5(C)C4(F)C(O)CC3(C)C2(C(=O)CO)O1 (stereo not drawn) | inactive
18 | O=C(NNC(=O)c1cccc(-n2cccc2)c1)c1ccccc1 | inconclusive: 1.16 µM [activator, full curve, poor fit]
19 | Nc1cc2c(cc1Cl)-c1ccccc1C2=NO | inactive
20 | COc1ccc(S(=O)(=O)Nc2ccccn2)cc1C | inconclusive: 29.1 µM [activator, single point]
21 | Cn1c2ccccc2c2nnc(NN)nc21 | inactive
22 | CS(=O)(=O)c1ccc(C(=O)OCc2nnc(-c3ccc(Cl)cc3)o2)cc1[N+](=O)[O-] | inconclusive: 29.1 µM [activator, single point]
23 | CC(C)C(=O)NC(c1ccc(Cl)cc1Cl)c1ccc2cccnc2c1O (stereo not drawn) | inconclusive: 4.11 µM [activator, single point]
24 | Cc1c(C)n(Cc2ccccc2)c2ccc(C(=O)OCCCN(C)C)cc12 | inconclusive: 18.4 µM [activator, partial curve, poor fit]
25 | COc1ccc(S(=O)(=O)N2CCCCC2)cc1NC(=O)CSc1nccn1C | inactive

Row | Structure (SMILES) | Potency
26 | O=C(NCc1nc2ccccc2[nH]1)C1=C[C@H](C2CCCCC2)C[C@H](OCc2ccc(CO)cc2)O1 | inconclusive: 29.1 µM [activator, single point]
27 | CC(C)(C)N=C1NC(=NC(C)(C)C)c2ccccc21 | inconclusive: 29.1 µM [activator, single point]
28 | Cc1[nH]n(-c2ccc(Br)cc2)c(=O)c1/C=N/NC(=O)c1ccccc1 | inconclusive: 3.26 µM [activator, single point]
29 | O=C1/C(=C/c2ccncc2)SC(=S)N1C1CCS(=O)(=O)C1 (stereo not drawn) | inactive
30 | CCN(CC)C(=O)c1sc2nc(Cc3ccccc3)[nH]c(=O)c2c1C | inconclusive: 7.31 µM [activator, partial curve, poor fit]
31 | CCOC(=O)C1=C(C)N(C[C@@H]2CC[C@@H](Cc3ccc(-c4ccccc4)cc3)O2)C(=O)NC1c1cccc([N+](=O)[O-])c1 (stereo partly drawn) | inconclusive: 23.1 µM [activator, partial curve, poor fit]
32 | COc1ccc(/C=N/N=C/c2ccc(OC)c(O)c2)cc1O | inactive
33 | Cc1ccnc(S(=O)(=O)Cc2ccc([N+](=O)[O-])cc2)n1 | inconclusive: 6.51 µM [activator, single point]
34 | COc1ccc(C2=NOC(C(=O)NCc3ccco3)C2)cc1OC (stereo not drawn) | active: 13 µM
35 | CCC(=O)c1ccc(OCC(O)Cn2nc(C)c(Br)c2C)cc1 (stereo not drawn) | inconclusive: 14.6 µM [activator, single point]
36 | COc1cccc(CN(C)C(=O)C(Cc2ccccc2)NC(=O)c2ccccc2)c1OC (stereo not drawn) | inactive
37 | C=CCNC(=S)N/N=C/c1ccc(-c2ccc(Br)cc2)o1 | inconclusive: 29.1 µM [activator, partial curve, poor fit]
38 | CC(Sc1nnc(CN2CCCC2)n1Cc1ccccc1)C(=O)Nc1ccc(F)c(F)c1F (stereo not drawn) | inactive
39 | O=C(c1ccccc1)c1c[nH]cc1-c1ccccc1 | inactive
40 | CN(CC(=O)Nc1cccc(F)c1)CC(=O)Nc1cccc2ccccc12 | inactive
41 | CCOC(=O)c1c(NC(=O)CN2CCCc3ccccc32)sc(C(C)=O)c1C | inactive
42 | COc1cc(S(=O)(=O)N2CCC(O)(c3cccc(C(F)(F)F)c3)CC2)ccc1-n1cnnn1 | inconclusive: 18.4 µM [activator, single point]
43 | Cc1nn(CC(=O)N(C)C2CCS(=O)(=O)C2)c(C)c1S(=O)(=O)N(C)C (stereo not drawn) | inconclusive: 16.4 µM [activator, single point]
44 | O=c1oc2cc(Br)ccc2n1CSC1=NCCS1 | inconclusive: 32.6 µM [activator, partial curve, poor fit]
45 | COc1ccc(S(=O)(=O)N2N=C(C)Oc3ccccc3C2=O)cc1 | active: 3.98 µM
46 | O=C(NCCN1CCCCC1)Nc1ccc(F)cc1 | inconclusive: 20.6 µM [activator, single point]
47 | Cc1cccn2c(CNCC3(c4ccccc4)CCCC3)c(C(=O)N3CCOCC3)nc12 | inactive
48 | CCN1/C(=C/C=C/C=C/C=C/c2sc3ccccc3[n+]2CC)Sc2ccccc21 | inactive
49 | N/C(=N\OC(=O)c1ccccc1[N+](=O)[O-])c1ccccn1 | inconclusive: 16.4 µM [activator, single point]
50 | Cc1c(NC(=O)CSc2cccc3cccnc23)c(=O)n(-c2ccccc2)n1C | inconclusive: 20.6 µM [activator, single point]

Row | Structure (SMILES) | Potency
51 | O=C(NCC(c1ccc(F)cc1)N1CCOCC1)c1nn(-c2ccccc2)c(=O)c2ccccc12 (stereo not drawn) | inactive
52 | O=C(NC1CCCC1)c1ccc(Cl)s1 | inactive
53 | Cc1cc(SCC(=O)c2ccccc2)n2nc(C)nc2n1 | inconclusive: 18.4 µM [activator, single point]
54 | CCCOCC(O)CCc1n[nH]c(=S)n1-c1ccccc1 (stereo not drawn) | inactive
55 | CCCN(CCC)C(=O)c1cc([N+](=O)[O-])cc2c1-c1ccc([N+](=O)[O-])cc1C2=C(C#N)C#N | inconclusive: 29.1 µM [activator, single point]
56 | Cc1noc(C)c1NC(=O)N(C)C[C@H]1Oc2c(NC(=O)Nc3ccc4c(c3)OCO4)cccc2C(=O)N([C@H](C)CO)C[C@@H]1C | inconclusive: 7.31 µM [activator, partial curve, poor fit]
57 | O=C(NCc1ccc(S(=O)(=O)NC2CCCCC2)s1)c1ccccc1 | inconclusive: 25.9 µM [activator, partial curve, poor fit]
58 | O=C(NCCCn1ccnc1)c1ccc(-c2cccc(C(F)(F)F)c2)o1 | inactive
59 | COCCN(CC(=O)Nc1cccc(C)c1C)C(=O)c1cc(-c2ccncc2)nc2ccccc12 | inactive
60 | COc1ccc(/C=N\NC(=O)CC(=O)Nc2cccc(Cl)c2)cc1OC | inconclusive: 0.092 µM [activator, partial curve, poor fit]
61 | CC(C)(C)c1ccc2c(c1)OC(C(=O)N/N=C/c1ccc([N+](=O)[O-])o1)CO2 (stereo not drawn) | inconclusive: 29.1 µM [activator, single point]
62 | O=C(CNC(=O)c1ccccc1F)NCCN1C(=O)S/C(=C\c2ccc3c(c2)OCO3)C1=O | inconclusive: 29.1 µM [activator, single point]
63 | CC1=C(C(=O)Nc2ccc(CC(=O)NCc3ccccc3C)cc2)SCCO1 | inactive
64 | O=C(N1CCCCC1)C12CC3CC(CC(C3)C1)C2 | inactive
65 | COC(=O)c1cccc(Nc2ncnc3sccc23)c1 | inactive
66 | COc1ccc(C(CNC(=O)Cc2cc(OC)c(OC)c(OC)c2)N2CCCC2)cc1 (stereo not drawn) | inactive
67 | CCN(CC)C(=O)CSc1nc(-c2cccs2)cc(-c2cccs2)c1C#N | inactive
68 | O=C1N[C@@H](c2ccccc2)COC(=O)[C@H](Cc2ccc(F)cc2)CC/C=C/C[C@H]1CC(=O)N(CCO)Cc1ccccc1 | inconclusive: 0.461 µM [activator, full curve, poor fit]
69 | Cc1c(C(=O)Oc2cccc3ccccc23)cnn1-c1ccccc1 | inactive
70 | Cc1cc(C(=O)COC(=O)c2ccc[nH]c2=O)c(C)n1-c1ccc(F)cc1 | inactive
71 | COCCn1c(=O)[nH]c2cc(C(=O)NCCN3CCN(c4cccc(Cl)c4)CC3)ccc2c1=O | inactive
72 | O=C(c1cc2cc(F)ccc2[nH]1)N1CCc2ccccc21 | inactive
73 | COc1ccc(Cl)cc1C(=O)NNC(=S)NC(=O)c1cc(-c2ccc(Cl)cc2)nc2ccccc12 | inactive

19 entries from above, with tabs.
Row	Structure (SMILES)	Potency
18	O=C(NNC(=O)c1cccc(-n2cccc2)c1)c1ccccc1	inconclusive: 1.16 µM [activator, full curve, poor fit]
19	Nc1cc2c(cc1Cl)-c1ccccc1C2=NO	inactive
20	COc1ccc(S(=O)(=O)Nc2ccccn2)cc1C	inconclusive: 29.1 µM [activator, single point]
21	Cn1c2ccccc2c2nnc(NN)nc21	inactive
22	CS(=O)(=O)c1ccc(C(=O)OCc2nnc(-c3ccc(Cl)cc3)o2)cc1[N+](=O)[O-]	inconclusive: 29.1 µM [activator, single point]
23	CC(C)C(=O)NC(c1ccc(Cl)cc1Cl)c1ccc2cccnc2c1O (stereo not drawn)	inconclusive: 4.11 µM [activator, single point]
24	Cc1c(C)n(Cc2ccccc2)c2ccc(C(=O)OCCCN(C)C)cc12	inconclusive: 18.4 µM [activator, partial curve, poor fit]
25	COc1ccc(S(=O)(=O)N2CCCCC2)cc1NC(=O)CSc1nccn1C	inactive
26	O=C(NCc1nc2ccccc2[nH]1)C1=C[C@H](C2CCCCC2)C[C@H](OCc2ccc(CO)cc2)O1	inconclusive: 29.1 µM [activator, single point]
27	CC(C)(C)N=C1NC(=NC(C)(C)C)c2ccccc21	inconclusive: 29.1 µM [activator, single point]
28	Cc1[nH]n(-c2ccc(Br)cc2)c(=O)c1/C=N/NC(=O)c1ccccc1	inconclusive: 3.26 µM [activator, single point]
29	O=C1/C(=C/c2ccncc2)SC(=S)N1C1CCS(=O)(=O)C1 (stereo not drawn)	inactive
30	CCN(CC)C(=O)c1sc2nc(Cc3ccccc3)[nH]c(=O)c2c1C	inconclusive: 7.31 µM [activator, partial curve, poor fit]
31	CCOC(=O)C1=C(C)N(C[C@@H]2CC[C@@H](Cc3ccc(-c4ccccc4)cc3)O2)C(=O)NC1c1cccc([N+](=O)[O-])c1 (stereo partly drawn)	inconclusive: 23.1 µM [activator, partial curve, poor fit]
32	COc1ccc(/C=N/N=C/c2ccc(OC)c(O)c2)cc1O	inactive
33	Cc1ccnc(S(=O)(=O)Cc2ccc([N+](=O)[O-])cc2)n1	inconclusive: 6.51 µM [activator, single point]
34	COc1ccc(C2=NOC(C(=O)NCc3ccco3)C2)cc1OC (stereo not drawn)	active: 13 µM
35	CCC(=O)c1ccc(OCC(O)Cn2nc(C)c(Br)c2C)cc1 (stereo not drawn)	inconclusive: 14.6 µM [activator, single point]
36	COc1cccc(CN(C)C(=O)C(Cc2ccccc2)NC(=O)c2ccccc2)c1OC (stereo not drawn)	inactive
